Measurements reported in PubChem BioAssay AID1259254 (NCATS, 2017)

Purpose: 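Genome-wide screen for genes that prevent DNA re-replication in cancer cells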 (primary screen)
System: human HCT116 colorectal cancer cells
Reagent: single siRNA against human genes
Timing: 3 days
Measurement: 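Nuclei stained with Hoechst and imaged; cell-cycle phase assigned by DNA content; G2 share scaled per plate, non-targeting siRNA 0%, GMNN siRNA 100%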
Reading the numbers: G2 robust z-score and G2 cells, % of GMNN control: higher = more G2 cells, more excess DNA replication
Hit rule: 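An siRNA counts as active if its G2 robust z-score lies at least 5 MADs above the screen median; here such calls match roughly 38% of GMNN control or more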
The whole screen tested about 59,000 reagents; shown is a random part of them. About 1,550 of them (2.6%) count as active. 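G2 share is only a proxy for re-replication; each gene was hit by three separate siRNAs, and active genes were retested.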 Unmarked entries are inactive. Reagents against one gene are numbered here. Further read-outs or replicates are left out here. The record does not give: the amount of reagent.

LOC729562 (retired record) #1 scored G2 robust z-score 0.0173; G2 cells, % of GMNN control 3.09.
LOC729562 (retired record) #2 scored G2 robust z-score 1.9; G2 cells, % of GMNN control 16.3.
After knock-down of LOC729562 (retired record) #3, the record shows G2 robust z-score -0.781; G2 cells, % of GMNN control -2.53.
ZNF572 #1 gave G2 robust z-score -0.0176; G2 cells, % of GMNN control 2.84.
Against ZNF572 #2, the entry reads G2 robust z-score -0.224; G2 cells, % of GMNN control 1.39.
Depletion of ZNF572 #3 resulted in: G2 robust z-score 0.917; G2 cells, % of GMNN control 9.42.
With knock-down of LOC729187 (retired record) #1, the record shows G2 robust z-score -0.0759; G2 cells, % of GMNN control 2.43.
LOC729187 (retired record) #2 gave G2 robust z-score 0.1; G2 cells, % of GMNN control 3.67.
Silencing of LOC729187 (retired record) #3 came out at: G2 robust z-score -0.0804; G2 cells, % of GMNN control 2.4.
After knock-down of PRKY #1, the record shows G2 robust z-score -1.08; G2 cells, % of GMNN control -4.64.
After knock-down of PRKY #2 the results were G2 robust z-score -0.517; G2 cells, % of GMNN control -0.668.
Silencing of PRKY #3 came out at: G2 robust z-score 0.979; G2 cells, % of GMNN control 9.85.
CLCN6 #1 scored G2 robust z-score -0.491; G2 cells, % of GMNN control -0.484.
After knock-down of CLCN6 #2, the screen gave G2 robust z-score 1.15; G2 cells, % of GMNN control 11.1.
After knock-down of CLCN6 #3 the results were G2 robust z-score -0.823; G2 cells, % of GMNN control -2.82.
Knock-down of TIGIT #1 came out at: G2 robust z-score 1.32; G2 cells, % of GMNN control 12.3.
Knock-down of TIGIT #2 gave: G2 robust z-score 0.616; G2 cells, % of GMNN control 7.3.
TIGIT #3 gave G2 robust z-score -0.583; G2 cells, % of GMNN control -1.13.
PRAM1 #1 gave G2 robust z-score -0.837; G2 cells, % of GMNN control -2.92.
With knock-down of PRAM1 #2 the results were G2 robust z-score 1.75; G2 cells, % of GMNN control 15.3.
With knock-down of PRAM1 #3, the record shows G2 robust z-score 1.08; G2 cells, % of GMNN control 10.6.
RREB1 #1 gave G2 robust z-score 3.63; G2 cells, % of GMNN control 28.5.
Against RREB1 #2, the entry reads G2 robust z-score -1.05; G2 cells, % of GMNN control -4.43.
Silencing of RREB1 #3 came out at: G2 robust z-score 3.21; G2 cells, % of GMNN control 25.5.

Reprinted from the entries so far for reference:
PRAM1 #1 → G2 robust z-score = -0.837; G2 cells, % of GMNN control = -2.92
PRAM1 #2 → G2 robust z-score = 1.75; G2 cells, % of GMNN control = 15.3
